Measured data: PubChem BioAssay AID1224830 (NIAID, 2016)
Aim: 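Regulators of TLR4 signalling towards TNF-alpha in macrophage-like cells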 (primary screen). Cells: human THP-1 monocytic leukaemia cells, TNF dual-luciferase reporter clone, PMA-differentiated to macrophage-like cells. Reagent: siRNA pool against human genes, 50 nM. Time to read-out: LPS for 4 h, given about 3 days after siRNA transfection. Conditions: bacterial LPS (TLR4 ligand), 10 ng/ml. Measured: 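Ratio of firefly to renilla light, scaled to the plate median and expressed as a robust z-score per replicate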. Reading the numbers: TNF reporter robust z-score: higher = stronger TNF reporter response to LPS. Rule for the call: 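a well is active when its z-score exceeds 2.8 or falls below -1.5; control wells carry no call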.
The whole screen tested about 18,000 reagents; this is a random part of them. About 2,900 of them (16%) count as active. 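Calls are made per well; low scores hint the gene aids the LPS response, high scores that it dampens it.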 Unmarked entries are inactive. Repeated entries: four replicate wells of each siRNA pool.

| gene | TNF reporter robust z-score |
| --- | --- |
| LPAR4 | -1.49 |
| LPAR4 | -0.39 |
| LPAR4 | -1.22 |
| LPAR4 | 0.24 |
| SORCS1 | 1.41 |
| SORCS1 | 1.67 |
| SORCS1 | 1.02 |
| SORCS1 | 2.25 |
| ID4 | -1.3 |
| ID4 | 0.62 |
| ID4 | -0.68 |
| ID4 | -1.49 |
| UTP3 | -0.48 |
| UTP3 | 0.21 |
| UTP3 | -1.28 |
| UTP3 | 0.15 |
| SMYD4 | -1.28 |
| SMYD4 | 0.13 |
| SMYD4 | 0.11 |
| FAM222A | -0.14 |
| FAM222A | 0.48 |
| FAM222A | 0.13 |
| FAM222A | 0 |
| SLC1A3 | -0.77 |
| SLC1A3 | -0.93 |
| SLC1A3 | -0.97 |
| SLC1A3 | -0.7 |
| CYP4F22 | -0.21 |
| CYP4F22 | -0.39 |
| CYP4F22 | 0.87 |
| CYP4F22 | 0.61 |
| CDX1 | 0.75 |
| CDX1 | 1.38 |
| CDX1 | 1.52 |
| CDX1 | 1.47 |
| HLA-K | -0.61 |
| HLA-K | -0.21 |
| HLA-K | -0.64 |
| HLA-K | -1.95 (active) |
| CCDC198 | 0.3 |
| CCDC198 | -0.94 |
| CCDC198 | -0.11 |
| CCDC198 | -1.59 (active) |
| MAP4K5 | -0.32 |
| MAP4K5 | 0.58 |
| MAP4K5 | -0.9 |
| MAP4K5 | 0.31 |
| PPP4R3A | -0.34 |
| PPP4R3A | 0.73 |
| PPP4R3A | -0.53 |
| PPP4R3A | -0.24 |
| PRAMEF7 | -0.29 |
| PRAMEF7 | 0.01 |
| PRAMEF7 | -0.42 |
| PRAMEF7 | 1.02 |
| HOXA7 | 0.09 |
| HOXA7 | 0.18 |
| HOXA7 | 0.25 |
| HOXA7 | 1.33 |
| FMO4 | -0.97 |
| FMO4 | 0.01 |
| FMO4 | 0.58 |
| FMO4 | -0.29 |
| E4F1 | -1.97 (active) |
| E4F1 | -1.57 (active) |
| E4F1 | -1.77 (active) |
| E4F1 | -1.26 |
| CHKB | -1.33 |
| CHKB | -0.04 |
| CHKB | 0.03 |
| CHKB | 0.61 |
| MAEL | -0.7 |
| MAEL | 0.65 |
| MAEL | 0.02 |
| MAEL | 1.23 |
| CDH12 | 0.41 |
| CDH12 | 0.54 |
| CDH12 | 0.69 |
| CDH12 | 0.65 |
| PIGU | 1.43 |
| PIGU | 1.26 |
| PIGU | 1.38 |
| PIGU | 0.7 |
| MTUS2 | -0.91 |
| MTUS2 | -0.28 |
| MTUS2 | -0.44 |
| MTUS2 | -0.62 |
| LIMS2 | 0.24 |
| LIMS2 | 0.58 |
| LIMS2 | -1.12 |
| LIMS2 | -0.83 |
| NLGN2 | -1.39 |
| NLGN2 | -0.47 |
| NLGN2 | 0 |
| NLGN2 | 0.15 |
| SELENOO | 0.04 |
| SELENOO | -0.33 |
| SELENOO | -0.81 |
| SELENOO | -0.38 |
| SETD7 | -0.58 |
| SETD7 | 1.25 |
| SETD7 | -1 |
| SETD7 | 0.22 |
| CCR10 | 0.5 |
| CCR10 | 0.48 |
| CCR10 | 0.44 |
| CCR10 | 1.24 |
| PPM1A | -0.28 |
| PPM1A | -0.84 |
| PPM1A | -0.5 |
| PPM1A | 1.41 |
| LDAF1 | 1.67 |
| LDAF1 | 1.96 |
| LDAF1 | 0.37 |
| FKBP11 | 1.09 |
| FKBP11 | 0.97 |
| FKBP11 | 1.57 |
| FKBP11 | 2.83 (active) |
| WNT10B | -0.75 |
| WNT10B | -0.04 |
| WNT10B | -0.4 |
| WNT10B | 0.69 |
| SIK3 | 0.4 |
| SIK3 | 0.14 |
| SIK3 | -0.41 |
| SIK3 | 0.96 |
| ZNF414 | 0.63 |
| ZNF414 | -0.29 |
| ZNF414 | 0.48 |
| ZNF414 | 1.02 |
| GABRR1 | 0.12 |
| GABRR1 | 0.32 |
| GABRR1 | 0.48 |
| GABRR1 | -1.33 |
| ABCC6 | 0.73 |
| ABCC6 | -0.33 |
| ABCC6 | -0.67 |
| ABCC6 | -0.94 |
| ACAT2 | 0.89 |
| ACAT2 | 1.04 |
| ACAT2 | 1.17 |
| ACAT2 | 1.24 |

Hits, among the entries above:
| gene | TNF reporter robust z-score |
| --- | --- |
| HLA-K | -1.95 (active) |
| CCDC198 | -1.59 (active) |
| E4F1 | -1.97 (active) |
| E4F1 | -1.57 (active) |
| E4F1 | -1.77 (active) |
| FKBP11 | 2.83 (active) |
